Among the data in PubChem BioAssay AID485318 (Broad Institute, 2010) are activity change, negative = inhibition values, retold here.

Chains of the proteins cited; added tags and fusions are not shown. Lines headed by an entry give the natural chain unless they say otherwise; changes in a name come on top.
UniProt O15379: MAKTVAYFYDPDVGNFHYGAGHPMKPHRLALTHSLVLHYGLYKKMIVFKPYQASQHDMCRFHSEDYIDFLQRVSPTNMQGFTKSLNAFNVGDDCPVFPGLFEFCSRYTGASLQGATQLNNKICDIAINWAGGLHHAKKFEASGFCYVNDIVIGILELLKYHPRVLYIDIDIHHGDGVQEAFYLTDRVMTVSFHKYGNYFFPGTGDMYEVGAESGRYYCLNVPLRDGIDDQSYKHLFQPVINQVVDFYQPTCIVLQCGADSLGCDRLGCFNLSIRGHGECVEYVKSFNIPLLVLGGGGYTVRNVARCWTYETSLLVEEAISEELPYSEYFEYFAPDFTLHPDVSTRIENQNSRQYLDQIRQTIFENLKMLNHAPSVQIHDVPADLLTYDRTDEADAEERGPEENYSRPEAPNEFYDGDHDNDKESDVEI

Screen size: about 1,400 compounds; fewer than 10 were called active.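 How the source made its calls: active means fluorescence-lowering compounds whose fitted half-maximal concentration is at or below ten times the highest valid dose tested; inconclusive means flat curve at 30 to 70% inhibition, or poor fit; inactive means the rest.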 This is one part of the list.

The target in the assay is Histone deacetylase 3 (Homo sapiens) (UniProt O15379). Description: inhibition of human HDAC3 enzymatic activity – biochemical, fluorescence, cherry-picked samples, counter-screen for JMJD2C/GASC1 demethylase inhibitor project, dose response (AID 485318).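 Further: enzyme preincubated with compound before substrate and trypsin were added; 0% = neutral control wells and -100% = SAHA positive control wells.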 The settings on record: recombinant HDAC3, fluorogenic peptide/trypsin coupled; at 12 µM (top of the series). On the technique in general: The purpose of a counterscreen is to sort out artefacts and off-target activity.
With `O=C(O)c1ccc(/C=N/Nc2cccc(C(F)(F)F)c2)cc1`, the activity change, negative = inhibition was inactive: 0.56%. For `Cc1oc(C(C)(C)C)cc1C(=O)N1CCN(c2ncccc2C(F)(F)F)CC1`, the activity change, negative = inhibition was inactive: 0.445%. In the case of `Cn1c(SCC(=O)Nc2cc(S(=O)(=O)N3CCOCC3)ccc2N2CCOCC2)nnc1-c1ccncc1`, the activity change, negative = inhibition was inactive: 0.574%.

As for `O=C(N/N=C/c1cc([N+](=O)[O-])cc([N+](=O)[O-])c1O)C(O)(c1ccccc1)c1ccccc1`, the activity change, negative = inhibition is inactive: 0.322%. As to `COC(=O)[C@]1(C)N[C@H](CN(C)C(=O)Nc2ccc(C)cc2)[C@@H]2C(=O)N(Cc3ccccc3)C(=O)[C@@H]21`, the activity change, negative = inhibition is inactive: 0.516%.

On to `Cc1ccc(NC(=O)c2ccc(OC(=O)CCN3C(=O)c4ccccc4C3=O)cc2)cc1`, for which the activity change, negative = inhibition was inactive: 0.646%.

`CCCCN(CC)S(=O)(=O)c1ccc(C(=O)Nc2nnc(COC)o2)cc1`: the activity change, negative = inhibition is inactive: 0.523%. On to `Cc1cc(N(C)C)cc(C)[n+]1[O-]`, for which the activity change, negative = inhibition was inactive: 1.03%. With `Cn1c(CNC(=O)c2ccccc2F)nnc1SCC(=O)Nc1nnc(C2CC2)s1`, the activity change, negative = inhibition was inactive: 0.0357%.

Take `CC(=O)Nc1n[nH]c(-c2ccc(C)cc2)c1C`: the activity change, negative = inhibition was inactive: 0.164%. With `C[C@@H]1CN([C@H](C)CO)C(=O)c2cccc(NC(=O)c3ccncc3)c2O[C@@H]1CN(C)Cc1ccc(C(=O)O)cc1`, the activity change, negative = inhibition is inactive: -0.337%.

For the molecule `CC(=O)N1CCN(c2ccc(NC(=O)c3ccc4ccccc4c3)cc2)CC1`, the activity change, negative = inhibition is inactive: 0.314%.

Consider `CCS(=O)(=O)N1CCCC(C(=O)NCCCN2CCCC2=O)C1` (centres undefined), for which the activity change, negative = inhibition was inactive: -0.0791%. `CCOC(=O)N1CCc2c(sc3nc4n(c(=O)c23)N=C(C)CS4)C1`: the activity change, negative = inhibition was inactive: -0.111%. On to `C#CCOCCOCCOCCNc1nc(N2CCN(C(=O)[C@H](CCCCN)n3cc([C@@H](N)[C@H](C)CC)nn3)CC2)nc(N2CCN(C(=O)[C@H](CCC(=O)O)n3cc([C@@H](N)CCSC)nn3)CC2)n1`, for which the activity change, negative = inhibition is inactive: -0.115%. As to `CC(=O)C1=C(c2ccccc2)N(C(C)=O)n2c(C)nnc2S1`, the activity change, negative = inhibition is inactive: -0.262%.

Regarding `C[C@@]12C(=O)Nc3ccc(Br)cc3C(=O)N1[C@H]1c3ccccc3OC[C@@H]1[C@@H]2c1ccccc1`, the activity change, negative = inhibition was inactive: 0.113%. As for `Cc1occc1-c1nnc(SCC(=O)Nc2ccccc2)n1C(C)c1ccccc1` (centres undefined), the activity change, negative = inhibition is inactive: 0.434%. In the case of `CC(C)(C)c1ccc(C(=O)NNC(=O)c2cccc(Br)c2)cc1`, the activity change, negative = inhibition was inactive: -0.391%.

With `COCCn1nnnc1C(C(C)C)N1CCCC(C)C1` (centres undefined), the activity change, negative = inhibition was inactive: 0.953%. Regarding `COC(=O)NNC(=S)Nc1cc(OC)ccc1OC`, the activity change, negative = inhibition was inactive: 1.27%. With `O=c1ccc2c(-c3ccccc3S(=O)(=O)O)c3ccc(O)c(O)c3oc-2c1O`, the activity change, negative = inhibition was inactive: 0.202%. Regarding `Cc1cc(C)n2nc(C(=O)N3CCCC(Nc4ccc(F)c(F)c4)C3)cc2n1` (centres undefined), the activity change, negative = inhibition was inactive: 0.457%.

Take `CN(C)CCCN1C(=O)C(=O)/C(=C(/O)c2ccncc2)C1c1ccccc1` (centres undefined): the activity change, negative = inhibition was inactive: -0.0699%. For the molecule `C=CCn1c(N2CCCCCC2)nc2c1c(=O)[nH]c(=O)n2C`, the activity change, negative = inhibition was inactive: -0.748%. In the case of `O=[N+]([O-])c1cc(/C=N/Nc2nc3ccccc3[nH]2)c(O)cc1O`, the activity change, negative = inhibition was inactive: 0.0861%. `NC(=O)C1CCN(c2nc(-c3ccccc3Br)cs2)CC1`: the activity change, negative = inhibition was inactive: -0.0286%. As to `CC(C)NC(=O)Nc1ccc2c(c1)C(=O)N([C@H](C)CO)C[C@@H](C)[C@@H](CN(C)C(=O)NC1CCCCC1)O2`, the activity change, negative = inhibition was inactive: 0.967%. `CCOC(=O)Nc1cc(C)c(Cl)cc1OC`: the activity change, negative = inhibition is inactive: 1.18%. Take `CCN(C[C@H]1N[C@@](CC)(C(=O)OC)[C@H]2C(=O)N(Cc3ccccc3)C(=O)[C@@H]12)S(=O)(=O)c1ccc(C(C)(C)C)cc1`: the activity change, negative = inhibition was inactive: 0.413%. Consider `COc1ccc(/C=N/N(C)c2cc(=O)n(C)c(=O)[nH]2)cc1OC`, for which the activity change, negative = inhibition is inactive: 0.29%. Consider `CC1CN(Cc2c(O)ccc3c2oc(=O)c2ccccc23)CC(C)O1` (centres undefined), for which the activity change, negative = inhibition is inactive: -0.481%.

Take `Cc1nn(-c2cccc(C(=O)O)c2)c(C)c1Oc1ccccc1O`: the activity change, negative = inhibition is inactive: -0.0812%. The figure for `COC(=O)c1cccc(C#CC(NP(=O)(c2ccccc2)c2ccccc2)c2ccccc2)c1` (centres undefined) is inactive: -0.21%; for `O=C(N/N=C/c1ccc(O)cc1)c1cncc(Br)c1` it is inactive: -0.0737%. With `CCCCOC(=O)Cn1cnc2ccc(Br)cc2c1=O` the figure was inactive: -0.0235%.

On to `CN1CCN(CC(=O)Nc2ccc(S(=O)(=O)N(C)C)cc2)CC1`, for which the activity change, negative = inhibition is inactive: -0.125%. `O=C(Cc1ccccc1)NC1(O)C(=O)c2ccccc2C1=O`: the activity change, negative = inhibition is inactive: 0.188%. With `Nc1ccc2oc(-c3ccccn3)nc2c1` the figure was inactive: 0.396%; with `O=C(NNC(=O)c1cccs1)c1ccc([N+](=O)[O-])cc1`, inactive: -1.01%; with `Cc1nc2sc(C(c3cccc(F)c3)N3CCOCC3)c(O)n2n1` (centres undefined), inactive: 1.25%. On to `CN(C)c1ccc(NC(=S)c2ccccn2)cc1`, for which the activity change, negative = inhibition is inactive: 0.555%. Take `COC(=O)c1sc(NC(=O)c2cc3c(s2)CCCC3)nc1C`: the activity change, negative = inhibition is inactive: -0.358%.

As to `CCNc1ccc(S(=O)(=O)N(C)C)cc1NCC(=O)Nc1c(F)cccc1F`, the activity change, negative = inhibition was inactive: 0.472%. Take `CCSc1nnc(-c2cccc(S(=O)(=O)N(CC)CC)c2)n1Cc1ccccc1`: the activity change, negative = inhibition is inactive: 0.208%. The figure for `Cc1ccc(S(=O)(=O)NCCC(=O)N2CCN(c3cccc(Cl)c3)CC2)cc1C` is inactive: -0.362%; for `COc1ccc(C(=O)O/N=C(\C)c2cnccn2)cc1` it is inactive: 1.48%. Take `CCOC(=O)C(C)Oc1ccsc1C(=O)OC` (centres undefined): the activity change, negative = inhibition is inactive: 0.474%.

As for `CC(=O)c1cccc(NC(=S)NC(=O)CC(C)C)c1`, the activity change, negative = inhibition was inactive: -0.0803%.

`CCc1ccc(C(=O)CSc2nc3ccccc3c(=O)[nH]2)cc1`: the activity change, negative = inhibition is inactive: 0.0353%. In the case of `O=c1cc(N2CCc3ccccc32)[nH]c(=O)n1Cc1ccc(F)cc1`, the activity change, negative = inhibition was inactive: 0.509%. Consider `CCOC(=O)c1c(NC(=O)c2cc(-c3ccc(O)cc3)on2)sc(C(C)=O)c1C`, for which the activity change, negative = inhibition is inactive: 0.792%.

Regarding `Oc1ccc(-c2nc3ncccn3c2Nc2ccc3c(c2)OCO3)cc1`, the activity change, negative = inhibition is inactive: 0.115%. The figure for `COC(=O)CN1C(=O)[C@H]2[C@@H](/C=C/c3ccccc3)N3C(=O)CN(Cc4ccccn4)C(=O)[C@@]3(Cc3ccccc3)[C@H]2C1=O` is inactive: 0.0934%.
